PubChem BioAssay AID504791, Drosophila RNAi Screening Center – 2011

Assay: 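Genes of the fly required for silencing by miRNA, siRNA or endo-siRNA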 (primary screen)
Cell system: Drosophila S2-derived reporter cells
Knock-down reagent: long dsRNA against Drosophila genes, about 150-250 ng dsRNA per well (siRNA assay); about 80-120 ng (miRNA assay)
Duration: about 5 days (siRNA assay); about 4 days (miRNA assay)
Treatment: copper sulfate induction of reporters: 25 µM (siRNA assay); 200 mM stated (miRNA assay), 1-2 days before reading
Measured: 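Dual luciferase assay: Renilla to firefly signal ratio in each well, scaled to the mean ratio of its plate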
Direction: siRNA reporter hit score: higher = 3 marks a strong hit with raised ratio; -3 a strong hit with lowered ratio
Hit rule: 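a well was a first-pass pick when its plate-scaled ratio rose above 1.5 (siRNA assay) or 1.6 (miRNA assay), or dropped below 0.6; a gene counted only if two separate dsRNAs agreed on retest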
The deposit covers about 23,000 reagents; below is a random part of those with a known target gene and a result. Over the whole deposit, 199 (0.86%) got an active call. 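Plate-scaled ratios behind the calls are not deposited; printed light signals are raw; many rows marked increased or decreased are still called inactive.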 A number with no mark means an inactive call. Names joined by + are all predicted targets of the reagent. Not all columns of the deposit are shown.

gene,PubChem SID,siRNA reporter hit score,stable siRNA reporter change,miRNA reporter change,"stable assay Renilla, run 1 (luminescence)"
alphaKap4,SID104189615,,,,6159
otk2,SID104187095,,,,5675
CG31055,SID104193624,,,,7554
CG32102,SID104201603,,,,9847
CG18294,SID104189683,,,,7211
CG17167,SID104200694,,,,5583
CG17167,SID104200695,,,,5919
Pask,SID104184129,,,,15887
Sms,SID104190200,,,,6032
CG2577,SID104199655,,,reporter ratio raised past the hit cutoff (active),4543
CG2577,SID104202666,,,,4610
CG2577,SID104204866,,,reporter ratio raised past the hit cutoff (active),
CSN8,SID104182049,,reporter ratio lowered past the hit cutoff,reporter ratio lowered past the hit cutoff,27287
Ddx1,SID104191654,,,,9711
asRNA:CR33945,SID104193872,,,,8778
tkv + CR14033 + tRNA:Asp-GTC-2-1 + 1 more,SID104180653,,,,2824
CG6843,SID104190517,,,,8518
CG11251,SID104189617,,,,7498
CG18748,SID104195177,,,,7330
CG32437,SID104191552,,,,6560
CG32437,SID104201606,,,,8860
Blos4,SID104189943,,,,6539
CG1801,SID104200348,,,,7662
Polr2M,SID104195305,,,,8246
Ssk,SID104190548,,,,10414
IntS8,SID104187209,-3,,,12695
Ugt35C1,SID104195872,,,,8018
tx (retired record),SID104196723,,,reporter ratio lowered past the hit cutoff (active),7815
CG30384,SID104185824,,,,8318
Spn28Dc,SID104182821,,,,8443
CG14204,SID104199351,,,,5526
HmgD,SID104184411,,,,6931
CG13070,SID104189745,,,,8050
CG8851,SID104180510,,,,7743
CG2120,SID104197999,,,,5227
CG2120,SID104205488,,,reporter ratio raised past the hit cutoff,
TotC,SID104193241,,,,3259
CG14857,SID104194773,,,,7243
swm,SID104181804,,,,2.50e5
swm,SID104201479,,reporter ratio raised past the hit cutoff,,16392
nclb,SID104186801,,,,8150
dpr1,SID104185698,,,,6436
dpr1,SID104186191,,,,6415
Erasp,SID104186903,,,,12593
Arr1,SID104181659,,,,8151
CG32246,SID104187907,,,,6059
CG12546 + CG14452,SID104191501,,,,9243
aurB,SID104183340,,,,5383
aurB,SID104202681,,,,5338
Prosbeta6,SID104191048,-3 (active),reporter ratio raised past the hit cutoff,,11645

The list goes on (3 carried over from the part before).
gene,PubChem SID,siRNA reporter hit score,stable siRNA reporter change,miRNA reporter change,"stable assay Renilla, run 1 (luminescence)"
aurB,SID104183340,,,,5383
aurB,SID104202681,,,,5338
Prosbeta6,SID104191048,-3 (active),reporter ratio raised past the hit cutoff,,11645
CG11293 (retired record),SID104183890,,,,6415
CG9451,SID104190866,,,,6034
CG3408,SID104190152,,,,5668
GLS,SID104187053,,,,7226
Gpo1,SID104186920,,,,8418
Mst87F,SID104196539,,,,6830
CG14423,SID104197712,,,,6380
CG31752,SID104202016,,,,3875
Fmr1,SID104196466,,,,6467
CG13901,SID104188163,,,,4848
vito,SID104201442,,,,10006
CG6283,SID104195801,,,,6083
kek2,SID104183344,,,,7386
CG42527 (retired record) + Hr4,SID104198287,,,,3795
CG42527 (retired record) + Hr4,SID104201789,,,,7590
CG42527 (retired record) + Hr4,SID104202070,,,,4279
CG42527 (retired record) + Hr4,SID104202437,,,,5191
CG42527 (retired record) + Hr4,SID104202608,,,,3824
CG30158,SID104184748,,,,4387
CG30158,SID104184766,,,,6860
CG30158,SID104184767,,,,5650
CG30158,SID104184804,,,,6203
CG10681,SID104189569,,,,7495
CG10681,SID104201214,,,,7862
CG10814,SID104185796,,,,8386
Pis,SID104199970,,,,5235
Alp7,SID104184147,,,,6904
hyx,SID104194254,,,,6559
CG1806,SID104199579,,,,7059
ChLD3,SID104182432,,,,7060
Ssrp,SID104184450,,,,16776
p-cup,SID104199305,,,,4532
glo,SID104195937,,,reporter ratio raised past the hit cutoff (active),6851
glo,SID104206351,,,reporter ratio raised past the hit cutoff (active),
